PubChem BioAssay AID1259254 – NCATS – 2017
Aim: 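Finding genes that stop cells copying their DNA twice in one cycle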 (primary screen). System: human HCT116 colorectal cancer cells. Reagent: single siRNA against human genes. Timing: 3 days. Measurement: 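Imaged Hoechst DNA stain sorts each cell into a cycle phase by DNA amount; per plate, G2 fraction set to 0% for non-targeting and 100% for GMNN siRNA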. Reading the numbers: G2 robust z-score: higher = more G2 cells, more excess DNA replication. Active means: 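Active siRNAs have a G2 robust z of 5 or more median absolute deviations over the median, which in these data means about 38% or higher of GMNN control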.
The deposit covers about 59,000 reagents; below is a random part of them. In the full data, about 1,550 (2.6%) were called active. 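G2 share is only a proxy for re-replication; each gene was hit by three separate siRNAs, and active genes were retested.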 Reagents against one gene are numbered here. Not all columns of the deposit are shown. Not stated in the record: the amount of reagent.

With MEIOSIN (meiosis initiator) #1, how do the results read?
G2 robust z-score: 0.213; outcome: inactive

With MEIOSIN (meiosis initiator) #2, how do the results read?
G2 robust z-score: 0.688; outcome: inactive

For MEIOSIN (meiosis initiator) #3, what was measured?
G2 robust z-score: -0.256; outcome: inactive

For TAF11 (TATA-box binding protein associated factor 11) #1, what was measured?
G2 robust z-score: 2.35; outcome: inactive

For TAF11 (TATA-box binding protein associated factor 11) #2, how do the results read?
G2 robust z-score: 0.358; outcome: inactive

For TAF11 (TATA-box binding protein associated factor 11) #3, what does the deposit list?
G2 robust z-score: 0.0395; outcome: inactive

With NBPF14 (NBPF member 14) #1, how do the results read?
G2 robust z-score: 1.06; outcome: inactive

With NBPF14 (NBPF member 14) #2, what was measured?
G2 robust z-score: 2.99; outcome: inactive

With NBPF14 (NBPF member 14) #3, what was measured?
G2 robust z-score: -0.831; outcome: inactive

Which result is listed for ENPEP (glutamyl aminopeptidase) #1?
G2 robust z-score: -0.888; outcome: inactive

Which result is listed for ENPEP (glutamyl aminopeptidase) #2?
G2 robust z-score: -0.121; outcome: inactive

Which result is listed for ENPEP (glutamyl aminopeptidase) #3?
G2 robust z-score: -0.055; outcome: inactive

For MYF6 (myogenic factor 6) #1, what was measured?
G2 robust z-score: 0.256; outcome: inactive

What is on record for MYF6 (myogenic factor 6) #2?
G2 robust z-score: 1.25; outcome: inactive

With MYF6 (myogenic factor 6) #3, how do the results read?
G2 robust z-score: -1.36; outcome: inactive

3 entries from above, reformatted.
{"target gene":"ENPEP (glutamyl aminopeptidase)","reagent":1,"G2 robust z-score":-0.888,"outcome":"inactive"}
{"target gene":"ENPEP (glutamyl aminopeptidase)","reagent":2,"G2 robust z-score":-0.121,"outcome":"inactive"}
{"target gene":"ENPEP (glutamyl aminopeptidase)","reagent":3,"G2 robust z-score":-0.055,"outcome":"inactive"}

The list goes on.
With OSGEPL1 (O-sialoglycoprotein endopeptidase like 1) #1, what was measured?
G2 robust z-score: -0.466; outcome: inactive

How did the screen score OSGEPL1 (O-sialoglycoprotein endopeptidase like 1) #2?
G2 robust z-score: -0.25; outcome: inactive

For OSGEPL1 (O-sialoglycoprotein endopeptidase like 1) #3, what was measured?
G2 robust z-score: -0.371; outcome: inactive

Which result is listed for TRPM4 #1?
G2 robust z-score: 1.68; outcome: inactive

What did the screen give for TRPM4 #2?
G2 robust z-score: -1.13; outcome: inactive

With TRPM4 #3, how do the results read?
G2 robust z-score: 2; outcome: inactive

What is on record for SLC9C2 #1?
G2 robust z-score: -0.729; outcome: inactive

What did the screen give for SLC9C2 #2?
G2 robust z-score: -0.557; outcome: inactive

Which result is listed for SLC9C2 #3?
G2 robust z-score: 0.0891; outcome: inactive
